Consider eleven molecules from patent US20230095558A1, “IMMUNE CHECKPOINT TIM3-TARGETING BINDING PEPTIDE AND APPLICATION THEREOF” (Sparx Biotech (Jiangsu) Co., Ltd., priority 2020, published 2023).

These are yes or no findings as the source states them, for the method shown. Some binding calls cover weakened binding; strength is not graded here.

T1: recombinant human TIM3 expressed on 293T-TIM3 cells (human) (UniProt Q8TDQ0)
T1 sequence (looked up): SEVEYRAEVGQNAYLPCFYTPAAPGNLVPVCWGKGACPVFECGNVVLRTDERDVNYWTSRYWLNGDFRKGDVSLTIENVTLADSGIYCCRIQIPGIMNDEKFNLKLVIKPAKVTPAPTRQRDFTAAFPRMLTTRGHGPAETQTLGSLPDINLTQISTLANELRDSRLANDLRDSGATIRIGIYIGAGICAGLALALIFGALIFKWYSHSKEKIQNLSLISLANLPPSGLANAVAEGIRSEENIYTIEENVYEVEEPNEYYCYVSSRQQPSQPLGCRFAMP

B1: N24 (peptide)
12-mer peptide displayed on phage: SHDTRSPFTWGR
B2: N71 (peptide)
12-mer peptide displayed on phage: TFLNSVPTYSYW
B3: N67 (peptide)
12-mer peptide displayed on phage: ADFRVMADMSMY
B4: N131 (peptide)
12-mer peptide displayed on phage: SHTTTEHAKDKI
B5: N40 (peptide)
12-mer peptide displayed on phage: GSWNTFRAQPTI
B6: N32 (peptide)
12-mer peptide displayed on phage: SFAGVHQFRPAP
B7: N129 (peptide)
12-mer peptide displayed on phage: HDAFPRPHLFRN
B8: N51 (peptide)
12-mer peptide displayed on phage: ALWPSSSMSSTI
B9: N17 (peptide)
12-mer peptide displayed on phage: LTPHKHHKHLHA
B10: N36 (peptide)
12-mer peptide displayed on phage: GLIPLTTMHIGK
B11: P26-12-peptide (targeting TIM3) (peptide)
peptide: GLIPLTTMHIGK

The first assay concerns the target T1, recombinant human TIM3 expressed on 293T-TIM3 cells (human). Nature of the assay: cell ELISA with phage, ratio of OD490 on 293T-TIM3 cells to OD490 on 293T cells. (In general: ELISA stands for enzyme-linked immunosorbent assay.)
As to B1, the binding entry is listed as “binds”.
Same read-out and setting: the result for B2 reads “binds”; that for B3, “binds”.
B4: the binding result is listed as “binds”.
Same read-out and setting: the result for B5 reads “binds”.
Consider B6, for which the binding result is recorded as “binds”.
Consider B7, for which the binding entry is on record as “binds”.
On to B8, for which the binding entry is reported as “binds”.
B9: the binding result was “binds”.
On the same count and under the same terms, the result for B10 reads “binds”.

For a further assay the target is unchanged. Nature of the assay: flow cytometry with P26-FITC on 293T-TIM3 cells, 293T cells as negative control. In general terms: In flow cytometry, cells or beads pass a laser one at a time.
In the case of B11, the binding entry is listed as “binds”.
